Laboratory results reported in PubChem BioAssay AID493014 (National Center for Advancing Translational Sciences (NCATS), 2011).
Out of some 340,000 compounds screened, about 170 (0.05%) were called active. Inconclusive results, whose numbers are uncertain, are shown with a selection of clear calls. The call rests on the fitted dose curve; in most records, active means well fitted inhibition curve with a large enough effect in the signal ratio, with a control signal flat (not every such curve was filed as active); inconclusive means small, poorly fitted or top-dose-only effect, or effect the other way, or a change in a side signal; inactive means flat fitted curve, though single readings scatter; the % refers to the signal ratio. Potencies of inconclusive entries are doubtful fits and often do not repeat.

assay: qHTS Assay to Find Inhibitors of Chronic Active B-Cell Receptor Signaling; conditions: ABC-DLBCL IkBa-CBG/CBR reporter, luminescence ratio (green luciferase fused to IkBa over red control in TMD8 lymphoma cells), 4 h; activity change, negative = inhibition: at 46.1 µM (top of the series) unless noted;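 on activity change, negative = inhibition: plate controls were basal doxycycline-induced cells for no effect and cells given 10 µM MG132 for full effect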
Outline: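 TMD8 ABC-DLBCL cells carrying doxycycline-inducible green luciferase fused to IkappaBalpha plus unfused red luciferase were exposed to compounds (up to 46 uM) for 4 hrs at 37C. Activity came from the overlap-corrected green/red luminescence ratio.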
Potency means the concentration at half of the fitted maximal effect.

Structure (SMILES) | activity change, negative = inhibition | Potency
CC(=O)N(C1CC(C)C(C#N)(C#N)C1(C#N)C#N)N(C)C (stereo not drawn) | inconclusive: 12.6% | –
CN(C)CCN(C)Cc1c2ccccc2c(CN(C)CCN(C)C)c2ccccc12 | inconclusive: -14.2% | –
NS(=O)(=O)c1ccc(N2N=C(c3ccccc3)CC2c2ccccc2Cl)cc1 (stereo not drawn) | inconclusive: -2.8% | –
C/C(=N\NC(=O)C1CC1)c1ccc(Cl)c(Cl)c1 | – | inconclusive: 0.291 µM [rising, full curve]
O=C(CCl)Oc1ccc2occ(C(=O)c3cccs3)c2c1 | inconclusive: 15.1% | –
Cc1csc(SCC(=O)Nc2ccc(Cl)cn2)n1 | inconclusive: -15.7% | –
O=C(NCCc1ccccc1)c1n[nH]c2ccccc12 | – | inconclusive: 35.5 µM [rising, partial curve]
CC(=O)Cn1ncc(N2CCCCC2)c(Cl)c1=O | inactive: 0.578% | –
CC(OC(=O)Cc1ccccc1[N+](=O)[O-])C(=O)Nc1ccc(Cl)cn1 (stereo not drawn) | inconclusive: -6.68% | –
CCNC(=S)NC(=NCc1cccnc1)Nc1nc(C)cc(C)n1 | inconclusive: -6.88% | –
COc1ccc(Nc2nnc(SC(C(=O)Nc3cc(C)ccc3C)c3ccccc3)s2)cc1 (stereo not drawn) | inactive: -0.38% | –
Cc1ccc(Cn2c(C(=O)NCCCN3CCOCC3)cc3sccc32)cc1 | inactive: -0.726% | –
O=C(Nc1nc2ccc(Br)cc2s1)c1ccco1 | – | inconclusive: 17.8 µM [falling, single point]
CCN1CCN(C(CNS(=O)(=O)c2ccc(OC)c(C)c2)c2cccnc2)CC1 (stereo not drawn) | inactive: -2.38% | –
Cc1cc(C)c2c(CC(=O)NC(C)C)coc2c1 | inconclusive: 1.64% | –
O=C(CSc1nnnn1-c1ccc(O)cc1)c1ccc(F)cc1 | inconclusive: -2.27% | –
Cc1[nH]nc2c1[C@@H](c1ccccc1[N+](=O)[O-])C(C#N)=C(N)O2 | inconclusive: -1.59% | –
COc1ccc(/C=N/Nc2nc(-c3ccc(Cl)cc3)cc(C(F)(F)F)n2)cc1OC | inconclusive: 12.3% | –
CC1=NN(c2ccccc2)C(=O)/C1=C\c1ccc(Oc2ccc([N+](=O)[O-])cc2[N+](=O)[O-])cc1 | – | inconclusive: 9.2 µM [rising, partial curve]
CCOc1cc(/C=N/NC(=O)NN(C)c2ncc(C(F)(F)F)cc2Cl)ccc1O | – | inconclusive: 11.2 µM [falling, partial curve, poor fit]
CCOC(=O)c1sc(NS(=O)(=O)c2ccc(F)cc2)nc1C | inactive: 10.2% | –
CCc1cccc(C)c1NC(=O)CSc1nnc(C)o1 | inactive: -10.9% | –
CC1CCN(c2nc3ccccc3nc2C(C#N)C(=O)NC2CCCCC2)CC1 (stereo not drawn) | inconclusive: 20.4% | –

3 compounds already listed, ordered by molecular weight, ascending.
Structure (SMILES) | activity change, negative = inhibition | Potency
O=C(CCl)Oc1ccc2occ(C(=O)c3cccs3)c2c1 | inconclusive: 15.1% | –
CCOC(=O)c1sc(NS(=O)(=O)c2ccc(F)cc2)nc1C | inactive: 10.2% | –
CCN1CCN(C(CNS(=O)(=O)c2ccc(OC)c(C)c2)c2cccnc2)CC1 (stereo not drawn) | inactive: -2.38% | –
